Values from PubChem BioAssay AID743454 (Peter MacCallum Cancer Centre, 2014)
This is one part, drawn at random, of about 18,000 reagents tested. Of all reagents, 450 (2.5%) got an active call. 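Single biological run; no consistent viability z cut-off exists, so the class columns, not z-scores, define the calls.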 A number with no mark means an inactive call.

Test: 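Genes whose loss kills vorinostat-resistant colon cancer cells under vorinostat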 (primary screen)
System: human HCT116-VR colon cancer cells, selected for vorinostat resistance
Reagents: siRNA pool against human genes, 40 nM siRNA pool
Timing: vorinostat for 24 h, read-out about 72 h after transfection
Conditions: vorinostat at 2.5 µM final
Detection: 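Two measures, CellTiter-Fluor viability and luminescent caspase 3/7 activity, each as fold change against same-plate mock wells, mean of duplicates, then screen-wide robust z-score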
Scale: viability robust z-score: higher = more viable cells than screen typical; caspase robust z-score: higher = more caspase 3/7 activity than screen typical
Active means: 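a knock-down is a hit when classed RV1 or RV2 for lowered viability, or CA1 or CA2 for caspase activation; those lethal without drug were dropped; hits were retested singly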

MTHFD1L
- viability hit class: no change
- caspase hit class: no change
- viability robust z-score: 1.59
- caspase robust z-score: -0.24

SPAG8
- viability hit class: no change
- caspase hit class: no change
- viability robust z-score: 0.48
- caspase robust z-score: -0.63

TMEM65
- viability hit class: no change
- caspase hit class: no change
- viability robust z-score: 0.84
- caspase robust z-score: -0.82

PDK1
- viability hit class: no change
- caspase hit class: no change
- viability robust z-score: 0.86
- caspase robust z-score: -0.4

IGSF8
- viability hit class: no change
- caspase hit class: no change
- viability robust z-score: 0.91
- caspase robust z-score: -1.18

TIMM44
- viability hit class: no change
- caspase hit class: no change
- viability robust z-score: -0.54
- caspase robust z-score: -1.13

DIPK1A
- viability hit class: no change
- caspase hit class: no change
- viability robust z-score: 0.82
- caspase robust z-score: -0.4

ZNF780A
- viability hit class: no change
- caspase hit class: no change
- viability robust z-score: -0.08
- caspase robust z-score: -1.21

CYB5D2
- viability hit class: no change
- caspase hit class: no change
- viability robust z-score: 0.7
- caspase robust z-score: -0.48

NRN1
- viability hit class: no change
- caspase hit class: no change
- viability robust z-score: 0.08
- caspase robust z-score: 1.08

FAM32A
- viability hit class: no change
- caspase hit class: no change
- viability robust z-score: 0.06
- caspase robust z-score: -0.42

SCP2D1
- viability hit class: no change
- caspase hit class: no change
- viability robust z-score: 0.63
- caspase robust z-score: 0.66

VPS39
- viability hit class: no change
- caspase hit class: no change
- viability robust z-score: 0.04
- caspase robust z-score: -0.22

MOSPD2
- viability hit class: no change
- caspase hit class: no change
- viability robust z-score: 0.78
- caspase robust z-score: -0.56

OR6Q1
- viability hit class: no change
- caspase hit class: no change
- viability robust z-score: 0.24
- caspase robust z-score: -0.5

GPR22
- viability hit class: no change
- caspase hit class: no change
- viability robust z-score: 1.21
- caspase robust z-score: 0.01

PODXL2
- viability hit class: no change
- caspase hit class: no change
- viability robust z-score: -1.14
- caspase robust z-score: 3.79

GAS8-AS1
- viability hit class: no change
- caspase hit class: no change
- viability robust z-score: -1.07
- caspase robust z-score: 0.68

PRB1
- viability hit class: no change
- caspase hit class: no change
- viability robust z-score: 0.5
- caspase robust z-score: 0.22

PTPN12
- viability hit class: no change
- caspase hit class: no change
- viability robust z-score: 0.76
- caspase robust z-score: -0.3

TNFSF8
- viability hit class: no change
- caspase hit class: no change
- viability robust z-score: 0.46
- caspase robust z-score: 0.87

UBE2U
- viability hit class: no change
- caspase hit class: no change
- viability robust z-score: 1.77
- caspase robust z-score: -0.4

ATIC
- viability hit class: no change
- caspase hit class: no change
- viability robust z-score: -0.86
- caspase robust z-score: 0.2

LIPC
- viability hit class: no change
- caspase hit class: no change
- viability robust z-score: 0.4
- caspase robust z-score: -0.73

RNF5
- viability hit class: no change
- caspase hit class: no change
- viability robust z-score: -0.28
- caspase robust z-score: 2.76

SGF29
- viability hit class: no change
- caspase hit class: no change
- viability robust z-score: -0.05
- caspase robust z-score: 4.4

NGB
- viability hit class: no change
- caspase hit class: no change
- viability robust z-score: 1.23
- caspase robust z-score: -0.15

Entries listed so far whose target name begins with M or m:
MTHFD1L
- viability hit class: no change
- caspase hit class: no change
- viability robust z-score: 1.59
- caspase robust z-score: -0.24

MOSPD2
- viability hit class: no change
- caspase hit class: no change
- viability robust z-score: 0.78
- caspase robust z-score: -0.56
